{
  "source": "the supplement of paper PMC3334620",
  "note": "The full ranking holds about 33,000 sequences; the median of “E-score (-0.5 to 0.5)” is about -0.016, and the highest 2% start at about 0.3. The list shows a part of the results.",
  "data": [
    {"target": "T1, Yer184c (UniProt P39961)", "T1 sequence": "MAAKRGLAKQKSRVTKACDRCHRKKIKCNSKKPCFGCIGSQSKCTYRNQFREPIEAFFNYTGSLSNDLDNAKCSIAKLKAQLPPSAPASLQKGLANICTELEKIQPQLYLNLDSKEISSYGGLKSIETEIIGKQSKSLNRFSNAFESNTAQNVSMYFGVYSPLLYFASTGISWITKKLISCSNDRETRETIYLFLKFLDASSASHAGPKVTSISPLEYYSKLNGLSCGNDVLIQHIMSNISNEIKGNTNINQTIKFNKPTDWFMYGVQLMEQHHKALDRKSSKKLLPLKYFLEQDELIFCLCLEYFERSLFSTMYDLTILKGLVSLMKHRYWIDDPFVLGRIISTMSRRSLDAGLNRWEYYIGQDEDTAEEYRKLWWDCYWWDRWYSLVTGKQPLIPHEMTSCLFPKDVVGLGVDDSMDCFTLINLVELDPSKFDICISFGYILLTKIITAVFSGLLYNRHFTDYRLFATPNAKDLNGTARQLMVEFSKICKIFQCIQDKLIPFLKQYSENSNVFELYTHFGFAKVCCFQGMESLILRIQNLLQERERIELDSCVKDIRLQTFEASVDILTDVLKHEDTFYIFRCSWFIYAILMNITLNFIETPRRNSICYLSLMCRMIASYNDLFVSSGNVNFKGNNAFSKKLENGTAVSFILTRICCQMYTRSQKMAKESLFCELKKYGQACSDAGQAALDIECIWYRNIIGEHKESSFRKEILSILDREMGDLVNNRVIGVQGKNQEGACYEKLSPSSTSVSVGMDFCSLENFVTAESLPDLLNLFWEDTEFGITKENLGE", "assay": "PBM E-score (8-mer binding enrichment) (E-score (-0.5 to 0.5)); higher = stronger / more preferred TF binding", "conditions": "protein concentration: 100 nM; construct: GST-full length", "summary_of_the_method": "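Universal all-10-mer Agilent arrays, double-stranded by primer extension on fresh or once-stripped slides, were probed with about 100-200 nM GST-tagged yeast transcription factors made by PURExpress. Fluorescent anti-GST detected bound protein, and masliner normalised the scans. E-scores from the Universal PBM Analysis Suite were given to each ungapped eight-base word pooled with its reverse complement.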", "values": [
      {"sequence": "CGCGAGAC", "PBM E-score": 0.0392},
      {"sequence": "AGGCATGC", "PBM E-score": 0.02},
      {"sequence": "AGCTTTCA", "PBM E-score": -0.0512},
      {"sequence": "ACCCCGAT", "PBM E-score": -0.132},
      {"sequence": "AATGGCCA", "PBM E-score": -0.256},
      {"sequence": "CAAACAGC", "PBM E-score": -0.0581},
      {"sequence": "AGCGTCGA", "PBM E-score": 0.0108},
      {"sequence": "AAGTGCTA", "PBM E-score": -0.224},
      {"sequence": "GGTTGGAC", "PBM E-score": -0.0104},
      {"sequence": "CGACGGTC", "PBM E-score": -0.215},
      {"sequence": "TGGCTACA", "PBM E-score": -0.035},
      {"sequence": "AAGGGAGA", "PBM E-score": -0.221},
      {"sequence": "CAAACAAA", "PBM E-score": 0.0682},
      {"sequence": "CACCTTGC", "PBM E-score": -0.182},
      {"sequence": "GCTGCATA", "PBM E-score": 0.0945},
      {"sequence": "GATCATGA", "PBM E-score": 0.0935},
      {"sequence": "CTCATCAC", "PBM E-score": -0.154},
      {"sequence": "AAGGGCCA", "PBM E-score": -0.32},
      {"sequence": "CGCGCAAA", "PBM E-score": 0.177},
      {"sequence": "TCCACTAA", "PBM E-score": 0.0945},
      {"sequence": "ACTCCTAA", "PBM E-score": -0.0919},
      {"sequence": "CGCCCGAG", "PBM E-score": 0.172},
      {"sequence": "ATAACATA", "PBM E-score": 0.0728},
      {"sequence": "ACTGCGTA", "PBM E-score": -0.231},
      {"sequence": "CTGGGTAA", "PBM E-score": 0.00534},
      {"sequence": "CTGCCCCA", "PBM E-score": -0.16},
      {"sequence": "ATCGGGTG", "PBM E-score": 0.155},
      {"sequence": "ATACACGC", "PBM E-score": 0.105},
      {"sequence": "GAAACTAA", "PBM E-score": 0.00372},
      {"sequence": "GCTATGAA", "PBM E-score": 0.00489},
      {"sequence": "AACACAAT", "PBM E-score": 0.139},
      {"sequence": "ATTGTACG", "PBM E-score": 0.017},
      {"sequence": "GTCCAGTA", "PBM E-score": -0.134},
      {"sequence": "AATGTGCT", "PBM E-score": 0.137},
      {"sequence": "TCCGGTCA", "PBM E-score": 0.116},
      {"sequence": "CTGGCATC", "PBM E-score": -0.302},
      {"sequence": "ACGCTTTC", "PBM E-score": -0.166},
      {"sequence": "AGGGCCTA", "PBM E-score": -0.176},
      {"sequence": "AATCCGCA", "PBM E-score": 0.101},
      {"sequence": "AAGGTATC", "PBM E-score": -0.0263},
      {"sequence": "CTATGGTC", "PBM E-score": -0.0949},
      {"sequence": "CTGGCGTA", "PBM E-score": -0.237},
      {"sequence": "CCAAGCCA", "PBM E-score": -0.222},
      {"sequence": "AAGAAAAG", "PBM E-score": 0.055},
      {"sequence": "TCGTACAA", "PBM E-score": 0.0657},
      {"sequence": "CACTACTG", "PBM E-score": -0.21},
      {"sequence": "GAAGGCCA", "PBM E-score": -0.384},
      {"sequence": "AATAACAA", "PBM E-score": 0.105},
      {"sequence": "ATTGACCG", "PBM E-score": 0.101},
      {"sequence": "CCCAGATA", "PBM E-score": -0.193},
      {"sequence": "ATCTTATA", "PBM E-score": 0.13},
      {"sequence": "ACCATTCA", "PBM E-score": 0.00717},
      {"sequence": "ACAGCCGC", "PBM E-score": -0.0252},
      {"sequence": "CAACGCGG", "PBM E-score": 0.0794},
      {"sequence": "TCGACACA", "PBM E-score": 0.0956},
      {"sequence": "ATAGAGTA", "PBM E-score": -0.00142},
      {"sequence": "GGTGCGAA", "PBM E-score": 0.0393},
      {"sequence": "GAACACGA", "PBM E-score": 0.132},
      {"sequence": "ACAAGCCG", "PBM E-score": 0.22},
      {"sequence": "GGTTCAAC", "PBM E-score": 0.00881},
      {"sequence": "AAGATAGT", "PBM E-score": 0.108},
      {"sequence": "GGGGCGTA", "PBM E-score": -0.231},
      {"sequence": "CACTACCG", "PBM E-score": -0.0663},
      {"sequence": "CCGGCTGA", "PBM E-score": 0.327},
      {"sequence": "ACTTTGTC", "PBM E-score": -0.0343},
      {"sequence": "CCAGCTCA", "PBM E-score": -0.235},
      {"sequence": "ACAAAGCC", "PBM E-score": 0.0883},
      {"sequence": "AATGATTG", "PBM E-score": 0.0403},
      {"sequence": "AGGTTCGA", "PBM E-score": 0.0505},
      {"sequence": "TAAACACA", "PBM E-score": 0.0625},
      {"sequence": "AGGATCCG", "PBM E-score": 0.102},
      {"sequence": "ATGTCAAC", "PBM E-score": -0.0333},
      {"sequence": "GGGTGACA", "PBM E-score": -0.0674},
      {"sequence": "AGTCGGAA", "PBM E-score": 0.245},
      {"sequence": "TCCAGCAA", "PBM E-score": -0.0646},
      {"sequence": "CGGTTTAG", "PBM E-score": 0.11},
      {"sequence": "AGCAGAAT", "PBM E-score": 0.098},
      {"sequence": "TCCTGAAA", "PBM E-score": 0.0897},
      {"sequence": "AGGTTATC", "PBM E-score": -0.0359},
      {"sequence": "CCGTCCAC", "PBM E-score": -0.013},
      {"sequence": "ATCACGTC", "PBM E-score": -0.188},
      {"sequence": "AGACTGTA", "PBM E-score": -0.072},
      {"sequence": "AATGGTGG", "PBM E-score": -0.189},
      {"sequence": "ACTGTCGG", "PBM E-score": 0.0175},
      {"sequence": "AATGAAAA", "PBM E-score": 0.137},
      {"sequence": "CTACGATA", "PBM E-score": -0.00818}
    ]}
  ]
}
